In paper PMC3769308:
These are yes or no findings as the source states them, for the method shown. Some results given as binding are weak or reduced against the parent protein; the word gives no strength.

By UniProt entry, the sequences of proteins in these tests, tags left out.
UniProt A0QZ54: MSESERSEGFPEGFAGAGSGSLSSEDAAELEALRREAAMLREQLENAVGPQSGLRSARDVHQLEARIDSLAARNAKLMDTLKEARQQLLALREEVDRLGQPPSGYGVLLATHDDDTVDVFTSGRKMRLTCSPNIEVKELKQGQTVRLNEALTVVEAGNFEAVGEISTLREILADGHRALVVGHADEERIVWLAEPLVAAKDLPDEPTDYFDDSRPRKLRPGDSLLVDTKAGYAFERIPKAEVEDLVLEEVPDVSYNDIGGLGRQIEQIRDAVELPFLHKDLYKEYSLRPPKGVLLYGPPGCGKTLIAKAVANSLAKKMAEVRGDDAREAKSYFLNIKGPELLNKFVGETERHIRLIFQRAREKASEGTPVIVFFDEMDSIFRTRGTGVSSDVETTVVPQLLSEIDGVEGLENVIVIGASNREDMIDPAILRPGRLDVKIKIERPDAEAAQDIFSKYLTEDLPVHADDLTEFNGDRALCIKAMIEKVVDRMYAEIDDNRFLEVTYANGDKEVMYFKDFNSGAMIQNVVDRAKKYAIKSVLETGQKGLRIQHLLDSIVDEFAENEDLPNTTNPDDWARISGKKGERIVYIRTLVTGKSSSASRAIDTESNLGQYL
UniProt P9WHN5: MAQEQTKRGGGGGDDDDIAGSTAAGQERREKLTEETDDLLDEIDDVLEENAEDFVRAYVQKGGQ

Experiments:
[1] = target: Msm Mpa/Mtb wild type proteasome CP complex (Mycobacterium smegmatis | Mycobacterium tuberculosis) (UniProt A0QZ54); assay: NMR titration; […]) for 16 h; […]
[2] = target: Mycobacterium smegmatis Mpa (mycobacterial proteasomal ATPase) (Mycobacterium smegmatis) (UniProt A0QZ54); assay: NMR titration; […]) for 16 h; […]
[3] = target: Msm Mpa/Mtb wild type proteasome CP complex (Mycobacterium smegmatis | Mycobacterium tuberculosis) (UniProt A0QZ54); assay: NMR titration

“Pup-GGQ (prokaryotic ubiquitin-like protein, precursor form with C-terminal glutamine) (from UniProt P9WHN5 1-64)” was tested, and the binding [1] was “binds”, the binding [2] was “binds weakly” and the binding [3] was “binds”.
